For at least one compound, name, drawing or mass did not settle the structure.
Test system: mouse peritoneal macrophages
Assay: Metabolism of 125I-acetyl-LDL by mouse peritoneal macrophages
Assay type: cell-based
Settings: 6 hr at 37° C

## CC(C)(CCC[C@](C)(OO)[C@H]1CC[C@H]2[C@@H]3CC=C4C[C@@H](O)CC[C@]4(C)[C@H]3CC[C@@]21C)OO [Compound A, 20-(S)-20,25-dihydroperoxy-3β-hydroxycholest-5-ene]
Compound A 50 μM
  Intracellular acetyl-LDL: 630 = 34 μg Acetyl-LDL/mg protein/6 hr

## CC(C)(CCC[C@@](C)(OO)[C@H]1CC[C@H]2[C@@H]3CC=C4C[C@@H](O)CC[C@]4(C)[C@H]3CC[C@@]21C)OO [Compound B, 20-(R)-20,25-dihydroperoxy-3β-hydroxycholest-5-ene]
Compound B 25 μM
  Intracellular acetyl-LDL: 696 = 56 μg Acetyl-LDL/mg protein/6 hr

From USRE37999E1, “20-(B)-20,25-dihydroperoxy-3β-hydroxycholest-5-ene and 20-(S)-20,25-dihydroperoxy-3β-hydroxycholest-5-ene” (Iowa State University Research Foundation, Inc., priority 1988, dated 2003)
